The source of these data is article PMC5833640.

By UniProt entry, the sequences of proteins in these tests, tags left out.
UniProt Q8IUC6: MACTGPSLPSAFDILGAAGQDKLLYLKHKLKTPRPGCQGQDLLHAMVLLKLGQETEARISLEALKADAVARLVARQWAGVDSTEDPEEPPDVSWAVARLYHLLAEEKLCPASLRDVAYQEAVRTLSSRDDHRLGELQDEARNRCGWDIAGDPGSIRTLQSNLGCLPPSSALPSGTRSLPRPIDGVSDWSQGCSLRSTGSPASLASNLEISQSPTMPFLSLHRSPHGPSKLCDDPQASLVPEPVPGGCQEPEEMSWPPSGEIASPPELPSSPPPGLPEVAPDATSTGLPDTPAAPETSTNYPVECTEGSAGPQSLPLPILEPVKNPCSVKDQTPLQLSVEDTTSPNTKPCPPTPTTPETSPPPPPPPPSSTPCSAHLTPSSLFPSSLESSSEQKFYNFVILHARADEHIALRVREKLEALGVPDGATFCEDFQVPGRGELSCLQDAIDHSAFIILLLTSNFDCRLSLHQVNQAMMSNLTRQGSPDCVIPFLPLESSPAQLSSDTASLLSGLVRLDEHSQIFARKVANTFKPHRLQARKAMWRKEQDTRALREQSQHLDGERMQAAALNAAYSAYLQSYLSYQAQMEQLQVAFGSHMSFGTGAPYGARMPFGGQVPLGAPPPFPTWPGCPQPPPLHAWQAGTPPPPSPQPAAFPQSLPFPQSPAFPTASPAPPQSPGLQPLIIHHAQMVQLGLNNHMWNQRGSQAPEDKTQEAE
UniProt Q13546: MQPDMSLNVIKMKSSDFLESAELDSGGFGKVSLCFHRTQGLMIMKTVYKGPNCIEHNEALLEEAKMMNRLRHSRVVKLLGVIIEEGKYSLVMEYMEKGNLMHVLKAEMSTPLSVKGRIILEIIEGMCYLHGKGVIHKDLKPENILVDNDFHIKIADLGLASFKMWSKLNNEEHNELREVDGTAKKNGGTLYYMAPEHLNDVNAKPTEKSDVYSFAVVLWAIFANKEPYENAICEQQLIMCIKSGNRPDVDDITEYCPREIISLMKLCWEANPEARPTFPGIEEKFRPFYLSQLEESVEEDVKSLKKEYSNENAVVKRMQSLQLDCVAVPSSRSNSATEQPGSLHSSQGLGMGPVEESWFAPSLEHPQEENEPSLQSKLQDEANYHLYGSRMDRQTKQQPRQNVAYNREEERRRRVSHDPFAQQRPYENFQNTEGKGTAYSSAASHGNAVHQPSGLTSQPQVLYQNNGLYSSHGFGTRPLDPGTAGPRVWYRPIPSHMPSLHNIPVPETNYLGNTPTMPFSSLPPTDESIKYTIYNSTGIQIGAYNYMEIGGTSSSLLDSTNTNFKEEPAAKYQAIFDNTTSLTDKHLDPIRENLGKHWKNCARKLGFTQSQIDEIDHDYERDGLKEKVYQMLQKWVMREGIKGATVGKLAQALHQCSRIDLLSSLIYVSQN

Results are given in words; binding and its absence hold for the method and conditions named. Binding seen in cells or lysates may run through a third protein. Some results given as binding are weak or reduced against the parent protein; the word gives no strength.

This assay concerns the target TRIF (Toll-IL-1 receptor-domain-containing-adaptor-inducing interferon-beta factor) (human (endogenous in HeLa)) (UniProt Q8IUC6). Kind of assay: co-IP; anti-TRIF immuno-precipitation from lysates of control and poly I:C (5 µg/ml)-transfected HeLa cells; western blot.

For “receptor-interacting serine/threonine-protein kinase 1 (RIPK1), full-length (from UniProt Q13546 1-671)”, the binding entry is recorded as “binds”.
